Laboratory results from the supplement of paper PMC12578635.
The other results are listed elsewhere or left out. Rule as the data show it: active = 150% or more and inactive = the rest. Single values are uncertain, as repeats are few or missing.

Test system: Staphylococcus aureus JE2-lux inside RAW 264.7 macrophages
Assay: intracellular bacterial bioluminescence relative to DMSO vehicle; higher = higher intracellular bacterial metabolic activity
Settings: 10 µM; treatment time 4 h; gentamicin 50 µg/ml

Intracellular bacterial bioluminescence, inactive:
CCCc1nnc(SCC(=O)Nc2cccc(C(F)(F)F)c2)n1-n1cccc1 31.3%, CCOc1ccccc1CNC(=O)C1CCCN(c2nc(C)nc3onc(C)c23)C1 (stereo unspecified) 102%, COc1ccc(C(=O)CSc2nc3c(C)cc(C)cc3cc2C#N)cc1OC 97.1%, Cc1ccc(C)c(NC(=O)c2c(-c3ccccc3Cl)noc2C)c1 62%, COC(=O)c1sccc1NC(=O)CSc1nccnc1N1CCN(c2cccc(C)c2C)CC1 62.5%, COc1ccccc1-n1c(CNC(=O)c2ccccc2F)n[nH]c1=S 97.2%, CCCCc1ccc(NC(=O)CSC2=NS(=O)(=O)c3cc(F)ccc3N2)cc1 124%, Cc1cccn2c(=O)c(C=O)c(Nc3ccc([N+](=O)[O-])cc3)nc12 90%, Cc1[nH]c2c(C(=O)Nc3ccc(Cl)cc3)cnn2c(=O)c1C 129%, COCCCNc1nc2c(-c3ccc(Cl)cc3)nnn2c2ccccc12 98.5%, Cc1ccc(N2C(=O)NC3CC2(C)Oc2ccccc23)cc1Cl (stereo unspecified) 36.7%, Cc1nnc(SCC(=O)NCCc2ccccc2)[nH]c1=O 115%, COc1ccc(C)c2sc(NC(=O)C3=COCCO3)nc12 72.3%, Cc1cc2c(cc1NC(=O)C1OCOc3ccccc31)OCCO2 (stereo unspecified) 87.6%, CCOC(=O)c1c(NC(=O)c2cc(-c3cccs3)on2)sc2c1CCC2 91.3%, CC(=O)c1sc(Nc2nc3cc4c(cc3s2)OCO4)nc1C 109%, COc1ccc(-c2c(C#N)c(N)nc3sc(C(=O)c4ccc(Cl)cc4)c(N)c23)cc1OC 95.6%, Cc1cccc(NC(=O)CSc2nnc3sc4ccccc4n23)c1 98%, CCCc1cc(=O)n2c([nH]c3ccccc32)c1C#N 96.9%, CCc1cccc(Nc2cc(-n3nc(C)cc3C)ncn2)c1 39.2%, CCOCCCNc1nc(-c2nnc(-c3ccccc3)o2)nc2ccccc12 39.3%, O=C1Nc2ccccc2/C1=N/NC(=O)C(c1ccccc1)c1ccccc1 86.9%, Cc1sc2nc(SCC(=O)c3ccc4c(c3)NC(=O)CO4)nc(N)c2c1C 92.4%, Cc1c(C)n(CCCN2CCOCC2)c2ncn3nc(C(C)N4C(=O)c5ccccc5C4=O)nc3c12 (stereo unspecified) 114%, CC1=C(C(=O)OCc2ccccc2)C(c2ccc(O)cc2)n2ncnc2N1 (stereo unspecified) 121%, O=C(CSc1nnc2sc3ccccc3n12)NCc1ccco1 81.8%
